By UniProt entry, the sequences of proteins in these tests, tags left out.
UniProt Q13283: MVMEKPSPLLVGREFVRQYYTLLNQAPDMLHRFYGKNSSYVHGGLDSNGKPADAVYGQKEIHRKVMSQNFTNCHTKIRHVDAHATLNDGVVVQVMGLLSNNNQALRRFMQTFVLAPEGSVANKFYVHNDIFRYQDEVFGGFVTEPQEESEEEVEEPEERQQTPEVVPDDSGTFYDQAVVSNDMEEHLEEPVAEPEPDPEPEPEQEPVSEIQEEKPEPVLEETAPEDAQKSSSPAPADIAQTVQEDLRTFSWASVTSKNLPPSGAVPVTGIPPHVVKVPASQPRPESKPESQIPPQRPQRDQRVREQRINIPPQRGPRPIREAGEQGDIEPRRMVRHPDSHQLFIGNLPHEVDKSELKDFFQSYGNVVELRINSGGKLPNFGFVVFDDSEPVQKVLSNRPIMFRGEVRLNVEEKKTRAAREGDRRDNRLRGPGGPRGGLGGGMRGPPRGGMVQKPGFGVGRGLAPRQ

According to publication doi:10.1101/152520:

B1: KHSRP (protein, UniProt Q92945 1-711)
chain: MSDYSTGGPPPGPPPPAGGGGGAGGAGGGPPPGPPGAGDRGGGGPGGGGPGGGSAGGPSQPPGGGGPGIRKDAFADAVQRARQIAAKIGGDAATTVNNSTPDFGFGGQKRQLEDGDQPESKKLASQGDSISSQLGPIHPPPRTSMTEEYRVPDGMVGLIIGRGGEQINKIQQDSGCKVQISPDSGGLPERSVSLTGAPESVQKAKMMLDDIVSRGRGGPPGQFHDNANGGQNGTVQEIMIPAGKAGLVIGKGGETIKQLQERAGVKMILIQDGSQNTNVDKPLRIIGDPYKVQQACEMVMDILRERDQGGFGDRNEYGSRIGGGIDVPVPRHSVGVVIGRSGEMIKKIQNDAGVRIQFKQDDGTGPEKIAHIMGPPDRCEHAARIINDLLQSLRSGPPGPPGGPGMPPGGRGRGRGQGNWGPPGGEMTFSIPTHKCGLVIGRGGENVKAINQQTGAFVEISRQLPPNGDPNFKLFIIRGSPQQIDHAKQLIEEKIEGPLCPVGPGPGGPGPAGPMGPFNPGPFNQGPPGAPPHAGGPPPHQYPPQGWGNTYPQWQPPAPHDPSKAAAAAADPNAAWAAYYSHYYQQPPGPVPGPAPAPAAPPAQGEPPQPPPTGQSDYTKAWEEYYKKIGQQPQQPGAPPQQDYTKAWEEYYKKQAQVATGGGPGAPPGSQPDYSAAWAEYYRQQAAYYGQTPGPGGPQPPPTQQGQQQAQ
B2: UPF3B (protein, UniProt Q9BZI7 1-483)
chain: MKEEKEHRPKEKRVTLLTPAGATGSGGGTSGDSSKGEDKQDRNKEKKEALSKVVIRRLPPTLTKEQLQEHLQPMPEHDYFEFFSNDTSLYPHMYARAYINFKNQEDIILFRDRFDGYVFLDNKGQEYPAIVEFAPFQKAAKKKTKKRDTKVGTIDDDPEYRKFLESYATDNEKMTSTPETLLEEIEAKNRELIAKKTTPLLSFLKNKQRMREEKREERRRREIERKRQREEERRKWKEEEKRKRKDIEKLKKIDRIPERDKLKDEPKIKVHRFLLQAVNQKNLLKKPEKGDEKELDKREKAKKLDKENLSDERASGQSCTLPKRSDSELKDEKPKRPEDESGRDYREREREYERDQERILRERERLKRQEEERRRQKERYEKEKTFKRKEEEMKKEKDTLRDKGKKAESTESIGSSEKTEKKEEVVKRDRIRNKDRPAMQLYQPGARSRNRLCPPDDSTKSGDSAAERKQESGISHRKEGGEE
B3: RBMS1 (protein, UniProt P29558 1-406)
chain: MGKVWKQQMYPQYATYYYPQYLQAKQSLVPAHPMAPPSPSTTSSNNNSSSSSNSGWDQLSKTNLYIRGLPPHTTDQDLVKLCQPYGKIVSTKAILDKTTNKCKGYGFVDFDSPAAAQKAVSALKASGVQAQMAKQQEQDPTNLYISNLPLSMDEQELENMLKPFGQVISTRILRDSSGTSRGVGFARMESTEKCEAVIGHFNGKFIKTPPGVSAPTEPLLCKFADGGQKKRQNPNKYIPNGRPWHREGEVRLAGMTLTYDPTTAAIQNGFYPSPYSIATNRMITQTSITPYIASPVSAYQVQSPSWMQPQPYILQHPGAVLTPSMEHTMSLQPASMISPLAQQMSHLSLGSTGTYMPATSAMQGAYLPQYAHMQTTAVPVEEASGQQQVAVETSNDHSPYTFQPNK
B4: RBMS2 (protein, UniProt Q15434 1-407)
chain: MLLSVTSRPGISTFGYNRNNKKPYVSLAQQMAPPSPSNSTPNSSSGSNGNDQLSKTNLYIRGLQPGTTDQDLVKLCQPYGKIVSTKAILDKTTNKCKGYGFVDFDSPSAAQKAVTALKASGVQAQMAKQQEQDPTNLYISNLPLSMDEQELEGMLKPFGQVISTRILRDTSGTSRGVGFARMESTEKCEAIITHFNGKYIKTPPGVPAPSDPLLCKFADGGPKKRQNQGKFVQNGRAWPRNADMGVMALTYDPTTALQNGFYPAPYNITPNRMLAQSALSPYLSSPVSSYQRVTQTSPLQVPNPSWMHHHSYLMQPSGSVLTPGMDHPISLQPASMMGPLTQQLGHLSLSSTGTYMPTAAAMQGAYISQYTPVPSSSVSVEESSGQQNQVAVDAPSEHGVYSFQFNK

Each binder was assayed against G3BP1-APEX2-GFP (human (endogenous in HEK293T)) (UniProt Q13283) (assay: proximity labelling).

binding, binds:
B1
B2
B3
B4

No constants are given. Whether binding was seen depends on the method and setting. Binding seen in cells or lysates may run through a third protein. Here binding means that the protein was enriched with, or labelled near, the bait; the list need not be complete.
